Test results reported in ChEMBL document CHEMBL1145649, “Novel HCV NS5B polymerase inhibitors derived from 4-(1',1'-dioxo-1',4'-dihydro-1'lambda6-benzo[1',2',4']thiadiazin-3'-yl)-5-hydroxy-2H-pyridazin-3-ones: Part 4. Optimization of DMPK properties” (Bioorg Med Chem Lett, 2008).

Assay: physchem
Settings: buffer, pH 7.4

## CC(C)CCn1nc(CC2CCCC2)c(O)c(C2=NS(=O)(=O)c3cc(NS(C)(=O)=O)ccc3N2)c1=O
  solubility: > 100 µM

## CC(C)(C)CCn1nc(C2=CCCC2)c(O)c(C2=NS(=O)(=O)c3cc(NS(C)(=O)=O)ccc3N2)c1=O
  solubility: > 100 µM
